Data on one substance can be found in article PMC3083433.

These are yes or no findings as the source states them, for the method shown. In cells and extracts the contact can be indirect. Binding calls can cover weak binding; strength is not graded here.

The target of the test is T1, tissue transglutaminase (tTG) (UniProt P21980).
T1 sequence: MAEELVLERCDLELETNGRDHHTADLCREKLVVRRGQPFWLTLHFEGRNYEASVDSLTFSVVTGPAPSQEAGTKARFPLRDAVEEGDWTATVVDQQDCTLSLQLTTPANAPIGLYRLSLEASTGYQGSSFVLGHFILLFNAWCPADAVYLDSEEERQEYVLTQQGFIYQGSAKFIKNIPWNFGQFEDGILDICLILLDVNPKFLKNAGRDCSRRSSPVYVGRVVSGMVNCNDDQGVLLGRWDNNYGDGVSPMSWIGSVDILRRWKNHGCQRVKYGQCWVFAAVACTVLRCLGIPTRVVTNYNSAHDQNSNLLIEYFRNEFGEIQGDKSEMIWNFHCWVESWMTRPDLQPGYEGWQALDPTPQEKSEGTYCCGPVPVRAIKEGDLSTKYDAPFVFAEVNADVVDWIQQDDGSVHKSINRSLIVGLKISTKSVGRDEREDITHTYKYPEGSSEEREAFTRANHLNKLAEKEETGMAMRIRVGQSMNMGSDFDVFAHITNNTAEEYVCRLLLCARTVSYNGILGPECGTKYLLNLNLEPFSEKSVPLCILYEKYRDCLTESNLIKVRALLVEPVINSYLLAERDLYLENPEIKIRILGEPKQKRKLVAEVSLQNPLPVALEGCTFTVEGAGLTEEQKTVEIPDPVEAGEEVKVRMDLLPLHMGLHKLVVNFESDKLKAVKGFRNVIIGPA
Kind of test: co-IP; fractions of internalized, recycled and retained proteins as in Fig. 5E; 4G3-Fab against tTG bound to cell surfaces at 4°C; surface tTG and associated proteins immunoprecipitated from lysates; probed for α5 and β1 integrins and with neutravidin-peroxidase.

In the case of “α5β1 integrin (mouse (endogenous in NIH3T3)) (complex)”, the binding entry is “binds”.
